Some of the results follow. These are raw signals, not scaled to a control.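 In the initial screen, polymyxin B was used at a concentration that permeabilizes Salmonella's outer membrane but not its inner membrane. Maximum growth was set by DMSO wells with or without polymyxin B. Since plates varied, data were ranked per plate, and compounds giving the lowest OD600 advanced as hits.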

In this experiment the test system is Salmonella enterica serovar Typhimurium SL1344. The experiment can be described thus: bacterial growth OD600 after 18 h with compound and polymyxin B; higher = more bacterial growth (less inhibition). The settings on record: 50 µM, Mueller-Hinton broth.

In the case of `COc1cc(CN2CCC(Oc3cc(C(=O)NC4CC4)ccc3OC)CC2)cc(OC)c1`, for the setting “polymyxin B 1 µg/mL”, the “bacterial growth OD600” value is 0.933.

As to `NC(=O)[C@@H]1CCCN1C(=O)CC1c2ccccc2CCc2ccccc21`, the “bacterial growth OD600” value (polymyxin B 0.75 µg/mL) amounted to 0.963.

As for `C=C(C)CN(C)Cc1cnc(S(=O)(=O)Cc2ccccc2)n1CC(C)C`, the “bacterial growth OD600” value (polymyxin B 1 µg/mL) worked out at 0.013. Regarding `COCCN1C(=O)CC(CC(=O)N2CCCC(C)C2)(c2ccccc2F)C1=O` (configuration not stated), the “bacterial growth OD600” value (polymyxin B 0.75 µg/mL) worked out at 0.742. Turning to `COc1ccc(-c2nn(-c3ccccc3C)cc2CN(C)Cc2cnccn2)cc1F`, where the note is “polymyxin B 1 µg/mL”, the “bacterial growth OD600” value was 0.002. On to `COCCO[C@H]1[C@H](NC(=O)C(C)C)c2ccccc2C12CCN(Cc1ccccn1)CC2`, for which the “bacterial growth OD600” value (polymyxin B 0.75 µg/mL) came to 0.851. On the same count and under the same terms, then `CO[C@H]1[C@H](NC(=O)c2ccncc2)c2ccccc2C12CCN(C(=O)CCN1CCCCC1=O)CC2`, with 0.747; and `COc1ccc(CCN2CCCC(CN(C)C(=O)c3cnn(C(C)C)c3)C2)cc1` (configuration not stated), with 0.883. With `COc1ccccc1OCc1cc(C(=O)N(C)Cc2cc(C)[nH]n2)n[nH]1`, the “bacterial growth OD600” value (polymyxin B 1 µg/mL) was 1.07.

On to `COc1ccc([C@@H](C)NC(=O)c2coc(COc3cccc(F)c3)n2)cc1`, for which, where the note is “polymyxin B 0.75 µg/mL”, the “bacterial growth OD600” value is 0.587. As for `O=C(Nc1ccnn1C1CCN(Cc2nc3c(s2)CCCC3)CC1)C1CC1`, the “bacterial growth OD600” value (polymyxin B 1 µg/mL) stood at 0.975.

Take `CC(=O)c1cc(CN2CCC(C3CCN(c4ncccn4)CC3)C2)cs1` (configuration not stated): the “bacterial growth OD600” value (polymyxin B 0.75 µg/mL) was determined as 0.812. Turning to `O=C(C1CCCC1)N1CCC2(CCCN(Cc3cccc(F)c3F)C2)C1` (configuration not stated), where the note is “polymyxin B 1 µg/mL”, the “bacterial growth OD600” value worked out at 0.238. Still for that read-out and setting: next, `CN(Cc1cccc(C(F)(F)F)c1)C(=O)c1cn(CC2CCCO2)nn1` (configuration not stated): 1.05. In the case of `Cc1cccnc1N1CCC(C2CCN(c3ncccn3)CC2)C1` (configuration not stated), the “bacterial growth OD600” value (polymyxin B 0.75 µg/mL) was found to be 0.53.

In the case of `COc1ccc(CCC(=O)NCCN2Cc3ccccc3OC(c3ccccc3F)C2)cc1OC` (configuration not stated), the “bacterial growth OD600” value (polymyxin B 0.75 µg/mL) is 0.711.

With `CN1N=C(C(=O)N2CCCC(CNC(=O)c3cccc4ccccc34)C2)CCC1=O` (configuration not stated), the “bacterial growth OD600” value (polymyxin B 1 µg/mL) is 0.957. On the same count and under the same terms, then `CCOC(=O)C1CCCN(C(=O)c2coc(COc3ccccc3)n2)C1` (configuration not stated), with 0.931.

For the molecule `CN(CC1CCOCC1)C(=O)c1csc2nc(-c3ccc(F)cc3)cn12`, the “bacterial growth OD600” value (polymyxin B 0.75 µg/mL) was 0.767. Still for that read-out and setting: then `COc1ccccc1C1CN(C)Cc2ccccc2O1` (configuration not stated), with 0.873. In the case of `O=C(NCCC1COc2ccccc2O1)c1ccc(NCC2CCOCC2)nc1` (configuration not stated), where the note is “polymyxin B 1 µg/mL”, the “bacterial growth OD600” value was 0.94. Still for that read-out and setting: next, `CN(Cc1ccsc1)C(=O)c1cc(COc2ccc3c(c2)OCO3)[nH]n1`: 0.794; `CSCCCNC(=O)c1cn(CCCc2ccccc2)nn1`: 0.788. On to `COCCn1cnc2cc(NC(=O)C3CCCCC3)cc(C(=O)NCC3CCCN(C(C)C)C3)c21` (configuration not stated), for which the “bacterial growth OD600” value (polymyxin B 0.75 µg/mL) turned out to be 0.852. In the case of `O=C(COc1ccccc1Cl)NC1CC(=O)N(Cc2ccc(F)cc2)C1` (configuration not stated), under “polymyxin B 1 µg/mL”, the “bacterial growth OD600” value stood at 0.881. In the case of `COC(=O)[C@@H]1CCCN1C(=O)Cc1ccc(N2CCC(NCc3ccc4c(c3)OCO4)CC2)cc1`, the “bacterial growth OD600” value (polymyxin B 0.75 µg/mL) amounted to 0.804. The same measure, in the same setting: next, `COc1cccc(N2C[C@@H]3C[C@@H](c4cc5c(cc4Cl)OCO5)N4CCC[C@@]34C2=O)c1`: 0.141. As to `CCSc1ncc(CN2CCC3(CCCN(Cc4ccc(F)c(F)c4)C3)C2)cn1` (configuration not stated), the “bacterial growth OD600” value (polymyxin B 1 µg/mL) is 0.765. With `CN(C(=O)CC1(c2ccccc2)CC(=O)N(CCCOc2cccnc2)C1=O)C1CCOC1` (configuration not stated), the “bacterial growth OD600” value (polymyxin B 0.75 µg/mL) was found to be 0.95. The same measure, in the same setting: then `O=C1CCC(C(=O)N2CCC(C3CCN(Cc4cccnc4)CC3)C2)=NN1` (configuration not stated), with 0.816.

With `O=C(c1cc(COc2cccc(F)c2)[nH]n1)N1CCCN(c2ncccn2)CC1`, the “bacterial growth OD600” value (polymyxin B 1 µg/mL) was found to be 0.95. Still for that read-out and setting: next, `c1cncc(OCCNc2nc3nonc3nc2N2CCCCC2)c1`: 0.823.

(Values after the supplement of paper PMC12889115.)
